Some of the results follow.
Columns and labels:
Assay in all cases: glycan array binding signal (z-score within array); higher = stronger binding
Details in all cases: glycan notation: IUPAC condensed, linker removed
[1] = target: Fuc(a1-2)[GalNAc(a1-3)]Gal(b1-4)GlcNAc
In short: (§1)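 The binding signal is a Z-score computed within each array and averaged over linkers. Arrays of the same protein sequence at different concentrations or buffers were also averaged together. Data originate from 3228 arrays in the Consortium for Functional Glycomics database, kept only where the protein sequence was available.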

[2] = target: Fuc(a1-2)[GalNAc(a1-3)]Gal(b1-4)GlcNAc(b1-2)Man(a1-3)[GalNAc(a1-3)[Fuc(a1-2)]Gal(b1-4)GlcNAc(b1-2)Man(a1-6)]Man(b1-4)GlcNAc(b1-4)GlcNAc
In short: as §1

[3] = target: Fuc(a1-2)[GalNAc(a1-3)]Gal(b1-4)GlcNAc(b1-3)Gal(b1-4)GlcNAc
In short: as §1

[4] = target: Fuc(a1-2)[GalNAc(a1-3)]Gal(b1-4)GlcNAc(b1-3)Gal(b1-4)GlcNAc(b1-3)Gal(b1-4)GlcNAc
In short: as §1

[5] = target: Fuc(a1-2)[GalNAc(a1-3)]Gal(b1-4)[Fuc(a1-3)]GlcNAc
In short: as §1

[6] = target: Fuc(a1-2)[GalNAc(a1-4)]Gal(b1-4)GlcNAc
In short: as §1

[7] = target: Fuc(a1-2)[GalNAc(b1-3)]Gal
In short: as §1

Fuc(a1-3)GlcNAc = target: Fuc(a1-3)GlcNAc
In short: as §1

[8] = target: Fuc(a1-3)[Gal(b1-4)]Glc6S
In short: as §1

[9] = target: Fuc(a1-3)[Gal(b1-4)]GlcNAc
In short: as §1

[10] = target: Fuc(a1-3)[Gal(b1-4)]GlcNAc(b1-2)Man(a1-3)[Fuc(a1-3)[Gal(b1-4)]GlcNAc(b1-2)Man(a1-6)]Man(b1-4)GlcNAc(b1-4)GlcNAc
In short: as §1

[11] = target: Fuc(a1-3)[Gal(b1-4)]GlcNAc(b1-2)Man(a1-6)[Gal(b1-4)GlcNAc(b1-2)Man(a1-3)]Man(b1-4)GlcNAc(b1-4)GlcNAc
In short: as §1

[12] = target: Fuc(a1-3)[Gal(b1-4)]GlcNAc(b1-3)Gal(b1-3)[Fuc(a1-4)]GlcNAc
In short: as §1

[13] = target: Fuc(a1-3)[Gal(b1-4)]GlcNAc(b1-4)Gal(b1-4)[Fuc(a1-3)]GlcNAc
In short: as §1

[14] = target: Fuc(a1-3)[Gal(b1-4)]GlcNAc(b1-4)Gal(b1-4)[Fuc(a1-3)]GlcNAc(b1-4)Gal(b1-4)[Fuc(a1-3)]GlcNAc
In short: as §1

[15] = target: Fuc(a1-3)[Gal(b1-4)]GlcNAc6S
In short: as §1

[16] = target: Fuc(a1-3)[Gal3S(b1-4)]Glc6S
In short: as §1

[17] = target: Fuc(a1-3)[Gal3S(b1-4)]GlcNAc
In short: as §1

[18] = target: Fuc(a1-3)[Gal3S(b1-4)]GlcNAc6S
In short: as §1

[19] = target: Fuc(a1-3)[GalNAc(b1-4)]GlcNAc
In short: as §1

Fuc(a1-4)GlcNAc = target: Fuc(a1-4)GlcNAc
In short: as §1

Fuc(b1-3)GlcNAc = target: Fuc(b1-3)GlcNAc
In short: as §1

Gal(a1-2)Gal = target: Gal(a1-2)Gal
In short: as §1

Gal(a1-3)Gal = target: Gal(a1-3)Gal
In short: as §1

Gal(a1-3)Gal(b1-3)GlcNAc = target: Gal(a1-3)Gal(b1-3)GlcNAc
In short: as §1

Gal(a1-3)Gal(b1-4)Glc = target: Gal(a1-3)Gal(b1-4)Glc
In short: as §1

Gal(a1-3)Gal(b1-4)GlcNAc = target: Gal(a1-3)Gal(b1-4)GlcNAc
In short: as §1

[20] = target: Gal(a1-3)Gal(b1-4)[Fuc(a1-3)]GlcNAc
In short: as §1

[21] = target: Gal(a1-3)Gal(b1-4)[Fuc(a1-3)]GlcNAc(b1-2)Man(a1-3)[Gal(a1-3)Gal(b1-4)[Fuc(a1-3)]GlcNAc(b1-2)Man(a1-6)]Man(b1-4)GlcNAc(b1-4)GlcNAc
In short: as §1

Gal(a1-3)GalNAc = target: Gal(a1-3)GalNAc
In short: as §1

[22] = target: Gal(a1-3)[Gal(a1-4)]Gal(b1-4)GlcNAc
In short: as §1

Gal(a1-4)Gal(b1-4)Glc = target: Gal(a1-4)Gal(b1-4)Glc
In short: as §1

Gal(a1-4)Gal(b1-4)GlcNAc = target: Gal(a1-4)Gal(b1-4)GlcNAc
In short: as §1

[23] = target: Gal(a1-4)Gal(b1-4)GlcNAc(b1-3)Gal(b1-4)Glc
In short: as §1

Gal(a1-4)GlcNAc = target: Gal(a1-4)GlcNAc
In short: as §1

Gal(a1-6)Glc = target: Gal(a1-6)Glc
In short: as §1

Gal(b1-2)Gal = target: Gal(b1-2)Gal
In short: as §1

Gal(b1-3)Gal = target: Gal(b1-3)Gal
In short: as §1

B1: Adiponectin (Rattus norvegicus), Q8K3R4 (protein)
chain: MLLLQALLFLLILPSHEGITATEGPGALVPPPKETCAGWMAGIPGYPGHNGIPGRDGRDGTPGEKGEKGDAGVLGPKGDPGDAGMTGAEGPRGFPGTPGRKGEPGEAAYMYHSAFSVGLETRVTVPNVPIRFTKIFYNQQNHYDGSTGKFHCNIPGLYYFSYHITVYMKDVKVSLFKKDKAVLFTYDQYQEKNVDQASGSMLLHLEVGDQVWLQVYGEGDNNGLYADNVNDSTFTGFLLYHDTN
glycan array binding signal (z-score) [1]: -0.634 | glycan array binding signal (z-score) [2]: 2.81 | glycan array binding signal (z-score) [3]: 0.183 | glycan array binding signal (z-score) [4]: 2.87 | glycan array binding signal (z-score) [5]: -0.729 | glycan array binding signal (z-score) [6]: -0.373 | glycan array binding signal (z-score) [7]: 0.034 | glycan array binding signal (z-score) (Fuc(a1-3)GlcNAc): -0.196 | glycan array binding signal (z-score) [8]: 1.98 | glycan array binding signal (z-score) [9]: -0.018 | glycan array binding signal (z-score) [10]: -1.22 | glycan array binding signal (z-score) [11]: -1 | glycan array binding signal (z-score) [12]: -0.745 | glycan array binding signal (z-score) [13]: -0.803 | glycan array binding signal (z-score) [14]: -0.968 | glycan array binding signal (z-score) [15]: 1.21 | glycan array binding signal (z-score) [16]: -1.09 | glycan array binding signal (z-score) [17]: -0.025 | glycan array binding signal (z-score) [18]: -0.745 | glycan array binding signal (z-score) [19]: -0.811 | glycan array binding signal (z-score) (Fuc(a1-4)GlcNAc): -0.659 | glycan array binding signal (z-score) (Fuc(b1-3)GlcNAc): 0.752 | glycan array binding signal (z-score) (Gal(a1-2)Gal): 0.075 | glycan array binding signal (z-score) (Gal(a1-3)Gal): 1.4 | glycan array binding signal (z-score) (Gal(a1-3)Gal(b1-3)GlcNAc): -0.495 | glycan array binding signal (z-score) (Gal(a1-3)Gal(b1-4)Glc): 2.17 | glycan array binding signal (z-score) (Gal(a1-3)Gal(b1-4)GlcNAc): 0.022 | glycan array binding signal (z-score) [20]: -0.702 | glycan array binding signal (z-score) [21]: 2.75 | glycan array binding signal (z-score) (Gal(a1-3)GalNAc): -0.349 | glycan array binding signal (z-score) [22]: 0.915 | glycan array binding signal (z-score) (Gal(a1-4)Gal(b1-4)Glc): 1.46 | glycan array binding signal (z-score) (Gal(a1-4)Gal(b1-4)GlcNAc): -0.311 | glycan array binding signal (z-score) [23]: -0.1 | glycan array binding signal (z-score) (Gal(a1-4)GlcNAc): -0.334 | glycan array binding signal (z-score) (Gal(a1-6)Glc): -0.915 | glycan array binding signal (z-score) (Gal(b1-2)Gal): -0.961 | glycan array binding signal (z-score) (Gal(b1-3)Gal): 1.21

— the supplement of paper PMC8728848
